The values that follow come from article PMC7819943, “Rice protein-binding microarrays: a tool to detect cis-acting elements near promoter regions in rice”.

Chains of the proteins cited; added tags and fusions are not shown.
UniProt Q0JBA9, entry or part of it: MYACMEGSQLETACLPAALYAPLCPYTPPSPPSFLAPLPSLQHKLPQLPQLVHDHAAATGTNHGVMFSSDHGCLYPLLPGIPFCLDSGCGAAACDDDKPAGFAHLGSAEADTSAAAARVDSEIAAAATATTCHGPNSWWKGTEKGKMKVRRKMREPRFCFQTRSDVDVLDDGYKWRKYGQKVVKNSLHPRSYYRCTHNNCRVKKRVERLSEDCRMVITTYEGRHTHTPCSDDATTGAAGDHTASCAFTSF

Some of the results follow.

For the test, the target named is OsWRKY34 (Oryza sativa, UniProt Q0JBA9 1-250). Description: protein-binding microarray (RPBM); PBS, 2% BSA, 51.3 ng/ul salmon testes DNA, 50 uM zinc acetate, 200 nM TF, 25 C, 1 h; high values mean tight binding. The following applies: protein: recombinant; tags: N-terminal polyhistidine and DsRed monomer fusion (pET32a); label: CyDye5-dUTP incorporated in the synthesized complementary strand; 3' TTTTT single-stranded linker to array surface; dsDNA, one strand shown. Summed up: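 A custom Agilent array was converted to double-stranded form by primer extension with Cy5-dUTP and blocked with 2% BSA. Protein at 200 nM in PBS with 2% BSA, salmon testes DNA and 50 µM zinc acetate was applied for 1 h at 25 °C, followed by washing. The proteins were polyhistidine–DsRed N-terminal fusions of transcription factors, expressed in E. coli BL21-CodonPlus and Ni–NTA-purified. The binding signal is per-feature fluorescence intensity (arbitrary units) from an Axon 4000B scanner.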
On to “TATGGTTGTTTGGTTTGTTTAAAGGGAGTACATATACATCCGGAGTCACCTAGTGCAG”, for which the binding signal is 8890 fluorescence intensity (a.u.).

Regarding “TTGGGTTGATATGTTGCTGAATGGTCATTTTCTGGGTTAACGGAGTCACCTAGTGCAG”, the binding signal was 11200 fluorescence intensity (a.u.).

For “ATTTGTTCATCTGGTTGCGACGCGTTCCTTAACTCTTTTTCGGAGTCACCTAGTGCAG”, the binding signal is 9120 fluorescence intensity (a.u.).

For “GTGCGATTTGTTTGTCCCTTTTGTCCGCGGATTTCCCGGGCGGAGTCACCTAGTGCAG”, the binding signal was 9300 fluorescence intensity (a.u.).

On to “CTCTCTTGTGCTTACTACTTATAAGTTTTAACTGAATGGACGGAGTCACCTAGTGCAG”, for which the binding signal is 8560 fluorescence intensity (a.u.).

With “AAAGATCGCTTTTTCCGTGGTAGGCTTCTCCATTTTATTTCGGAGTCACCTAGTGCAG”, the binding signal was 10700 fluorescence intensity (a.u.).

Turning to “GGAGTAGTATTTCTGAAGTTTACGGGGCGGCTGATGCTTCCGGAGTCACCTAGTGCAG”, the binding signal was 13900 fluorescence intensity (a.u.).

With “GATACATTGCACATTATACTTCATATATAGTATTATAATTCGGAGTCACCTAGTGCAG”, the binding signal was 8610 fluorescence intensity (a.u.).

As for “TCCTTTTTCTTTTTTCTCTTGCCACATTGACATTTTATCGCGGAGTCACCTAGTGCAG”, the binding signal was 10400 fluorescence intensity (a.u.).

Regarding “ACTAAATTGTTGCCCATTTATCCTAGCTATATAGTAGCTACGGAGTCACCTAGTGCAG”, the binding signal was 8480 fluorescence intensity (a.u.).

Regarding “CTGTTGTTCTGTATATTGTGGTGGGTGTTGATTTGCGGGTCGGAGTCACCTAGTGCAG”, the binding signal was 12800 fluorescence intensity (a.u.).

Turning to “CACATGTCATTGTCACACACACGCGCGCCCCATTGGACATCGGAGTCACCTAGTGCAG”, the binding signal is 9860 fluorescence intensity (a.u.).

With “CTCCACCACTAATTCCTTCTTGCCACATGTGGTCGCTGATCGGAGTCACCTAGTGCAG”, the binding signal was 11000 fluorescence intensity (a.u.).

Consider “GGTGGTGGTGGTGTGCGCGGCTGAGCCGGACGCGGACAGGCGGAGTCACCTAGTGCAG”, for which the binding signal is 11300 fluorescence intensity (a.u.).

Regarding “ATTTATCTTTTTATTCTATTTATGGAATCGTCCAACCAAACGGAGTCACCTAGTGCAG”, the binding signal was 9130 fluorescence intensity (a.u.).

For the sequence “CGGTCGCTCGTCTCCGTCTCCGTCTCCGCCACCGCCACCGCGGAGTCACCTAGTGCAG”, the binding signal was 11800 fluorescence intensity (a.u.).

In the case of “TGCACCTCCTCCTTGGCCATGGTATGTCTCTCCCCTATCTCGGAGTCACCTAGTGCAG”, the binding signal was 9170 fluorescence intensity (a.u.).

For “TTGACCTGTTGACTTAGGGTTAGATTATATATGTCTGTTACGGAGTCACCTAGTGCAG”, the binding signal is 8250 fluorescence intensity (a.u.).

Consider “GATGGTTGGGTCTCATATGCAATGTTTCTTTGATTTTTGTCGGAGTCACCTAGTGCAG”, for which the binding signal is 8470 fluorescence intensity (a.u.).

As for “TCCCACACGCCATGACGCCAACCAACCCAAGCACAGCAGTCGGAGTCACCTAGTGCAG”, the binding signal is 9360 fluorescence intensity (a.u.).

As to “CAGCAGCGGCGGCGGCGGCGGCGGCGGGGTGGTGGAACCTCGGAGTCACCTAGTGCAG”, the binding signal is 9080 fluorescence intensity (a.u.).

Consider “TGTGTTGTTGCTTTTACCATCGCCTTCCCCACCACCTTCTCGGAGTCACCTAGTGCAG”, for which the binding signal is 8650 fluorescence intensity (a.u.).

Turning to “TTAATGTATGACGCTGTTCACTTTTCATCTAACGCTTAACCGGAGTCACCTAGTGCAG”, the binding signal is 9070 fluorescence intensity (a.u.).

On to “TTAGCTCATCCTTCCATGCACCACACCTGCTCGACCACATCGGAGTCACCTAGTGCAG”, for which the binding signal is 9700 fluorescence intensity (a.u.).

Turning to “ATTTTAAACGGTTTTGATAGTTAGAGGGGTCGATTTATCTCGGAGTCACCTAGTGCAG”, the binding signal was 8290 fluorescence intensity (a.u.).

“ATTTGACACCGTTAACCTTTTAGCACATGTTTGACCGTTCCGGAGTCACCTAGTGCAG”: the binding signal was 11900 fluorescence intensity (a.u.).

For “TATTTGATCCCGTTTTTTAAAATCGAGCTTACCGTTTGACCGGAGTCACCTAGTGCAG”, the binding signal is 10500 fluorescence intensity (a.u.).

As to “AAACTATGCACTTTTTATCTGTTAACATAGCCTACACTGTCGGAGTCACCTAGTGCAG”, the binding signal was 10600 fluorescence intensity (a.u.).

For “CAATCCCATCAGTAATGTGTTTCACACCGTCGTATTTGCCCGGAGTCACCTAGTGCAG”, the binding signal is 9840 fluorescence intensity (a.u.).

Regarding “GCGCTGTGGATTGGTTGTGTCTTTTCTTGTATATAAACGCCGGAGTCACCTAGTGCAG”, the binding signal was 11400 fluorescence intensity (a.u.).

Consider “TGCGAGCTAGCTCTGCTAGGTCGCCACCGTCGAGGCCCTCCGGAGTCACCTAGTGCAG”, for which the binding signal is 8050 fluorescence intensity (a.u.).

As to “TCGCCTCATCTTTTATTTGCACCATGATACTGCCGGTATACGGAGTCACCTAGTGCAG”, the binding signal is 10900 fluorescence intensity (a.u.).

As to “TCTACTATTTTAGGGTTTGGCAGGTTTAGATATTGATATTCGGAGTCACCTAGTGCAG”, the binding signal was 11400 fluorescence intensity (a.u.).

Consider “GGTTTGTTGTTTGGATATCATAGTTTTTGAATGAGGAGAACGGAGTCACCTAGTGCAG”, for which the binding signal was 13800 fluorescence intensity (a.u.).

Turning to “TCTTCTCTGTTGCCGTAATGCAGAGGATCCATGCCTGTCACGGAGTCACCTAGTGCAG”, the binding signal was 8400 fluorescence intensity (a.u.).

Turning to “CATCCGTATTTGAGTCAGTTTTAAAGTTTGTTCGCTTTTGCGGAGTCACCTAGTGCAG”, the binding signal was 8420 fluorescence intensity (a.u.).

For “TTGGCCGAGGTCCTAGTTACGGTTTTTCTCAGTCGCATTACGGAGTCACCTAGTGCAG”, the binding signal is 11300 fluorescence intensity (a.u.).

As to “TTCTCCTTTTTTAGACTGGTTTCATATGTTTGTGGTATAACGGAGTCACCTAGTGCAG”, the binding signal is 11200 fluorescence intensity (a.u.).

Regarding “TCACTGACCAAACTACCAAACTCATGCTCCTTAGTAGTTCCGGAGTCACCTAGTGCAG”, the binding signal was 9010 fluorescence intensity (a.u.).

For “GTGTGTTGGTTGTCACAGTACTGTGTGGTGGTGGTGGAAGCGGAGTCACCTAGTGCAG”, the binding signal was 9220 fluorescence intensity (a.u.).

Take “CCCACCTGCTCCCAATCTCCATTCTCCTCATCACATATCCCGGAGTCACCTAGTGCAG”: the binding signal is 10600 fluorescence intensity (a.u.).

Consider “GTTTGCTTTTTTTTTCTTTTTTCTCTCTCATTGTTTTTTTCGGAGTCACCTAGTGCAG”, for which the binding signal was 9930 fluorescence intensity (a.u.).
